Data taken from patent publication US12509437B2, “Substituted thiophene carboxamides and derivatives thereof as microbicides” (Bayer Aktiengesellschaft, priority 2019, dated 2025).
Some of these results come from one statement about several compounds together.

How the values were obtained:
[1] = system: salicylate responsive promoter sequence of the PR1 (pathogenesis-related protein I) gene (AT2G14610); experiment: Induction of defense gene expression in Arabidopsis thaliana (PR1 promoter-GFP reporter plants); format: in vivo; settings: 3rd day after spraying, mock treated leaves set as 1.00
Procedure: Arabidopsis thaliana reporter plants containing the coding sequence of a green fluorescent protein (GFP) linked to the salicylate responsive promoter sequence of the PR1 (pathogenesis-related protein I) gene (AT2G14610) were grown for five days and then sprayed with compounds. On the 3rd day after spraying, plant fluorescence was assessed with a MacroFluo instrument from Leica Microsystems (Wetzlar, Germany). Fluorescences were quantified with the Meta-Morph Microscopy Automation & Image Analysis Software (Molecular Devices, Sunnyvale, Calif., United States). Background fluorescence in mock treated leaves was set as 1.00.

[2] = system: Pseudomonas syringae pv. tomato; experiment: Pseudomonas syringae pv. tomato in vitro cell test; format: cell-based; settings: 20 ppm of active ingredient; 24 h of incubation
Procedure: (§1) • Solvent: DMSO • Culture medium: LB broth medium (Luria Broth Miller) Sigma • Inoculum: bacteria suspension Compounds were solubilized in DMSO and the solution used to prepare the required range of concentrations. The final concentration of DMSO used in the assay was ≤1%. Inoculum was prepared from a pre-culture of bacteria grown in liquid medium and diluted to the desired optical density (OD). Compounds were evaluated for their ability to inhibit bacteria growth in liquid culture assay. The compounds were added in the desired concentrations to culture medium containing the bacteria suspension. After 24 h of incubation, the efficacy of compounds was determined by spectrometric measurement of bacteria growth. Inhibition was determined by comparing the absorbance values in wells containing the compounds with the absorbance in control wells without active ingredients.

Alternaria alternata = Alternaria alternata in vitro cell test; format: cell-based; settings: 5 days incubation
Procedure: (§2) • Solvent: DMSO • Culture medium: 14.6 g anhydrous D-glucose (VWR), 7.1 g Mycological Peptone (Oxoid), 1.4 g granulated Yeast Extract (Merck), QSP 1 liter • Inoculum: spores suspension Fungicides were solubilized in DMSO and the solution used to prepare the required range of concentrations. The final concentration of DMSO used in the assay was ≤[…]1%. A spore suspension of A. alternata was prepared and diluted to the desired spore density. Fungicides were evaluated for their ability to inhibit spore germination and mycelium growth in liquid culture assay. The compounds were added in the desired concentration to the culture medium with spores. After 5 days incubation, fungi-toxicity of compounds was determined by spectrometric measurement of mycelium growth. Inhibition of fungal growth was determined by comparing the absorbance values in wells containing the fungicides with the absorbance in control wells without fungicides.

[3] = system: Colletotrichum lindemuthianum; experiment: Colletotrichum lindemuthianum in vitro cell test; format: cell-based; settings: 6 days incubation
Procedure: as §2, with “of C. lindemuthianum” for “of A. alternata”, “inhibit spores” for “inhibit spore”, “After 6” for “After 5”

[4] = system: Xanthomonas campestris pv. campestris; experiment: Xanthomonas campestris pv. campestris in vitro cell test; format: cell-based; settings: 24 h of incubation
Procedure: as §1

SMILES | relative fluorescence value ([1]; 75 ppm) | relative fluorescence value ([1]; 300 ppm) | efficacy (inhibition of bacteria growth; no direct activity) [2] | efficacy (inhibition of fungal growth; no direct activity) (Alternaria alternata; 5 ppm of active ingredient) | efficacy (inhibition of fungal growth; no direct activity) (Alternaria alternata; 20 ppm of active ingredient) | efficacy (inhibition of fungal growth; no direct activity) ([3]; 5 ppm of active ingredient) | efficacy (inhibition of fungal growth; no direct activity) ([3]; 20 ppm of active ingredient) | efficacy (inhibition of bacteria growth; no direct activity) ([4]; 5 ppm of active ingredient) | efficacy (inhibition of bacteria growth; no direct activity) ([4]; 20 ppm of active ingredient)
CCSC(=O)C(NC(=O)c1sc(Br)c(Br)c1C)C(C)C (stereo not drawn) [I.008] | above 2 | above 2 | ≤ 30% | ≤ 30% | ≤ 30% | ≤ 30% | ≤ 30% | ≤ 30% | ≤ 30%
Cc1c(C(=O)NCC(=O)SCc2ccccc2)sc(Br)c1Br [I.009] | above 2 | above 2 | ≤ 30% | ≤ 30% | ≤ 30% | ≤ 30% | ≤ 30% | ≤ 30% | ≤ 30%
Cc1c(C(=O)N[C@H]2CCSC2=O)sc(Br)c1Br [I.010] | – | above 2 | ≤ 30% | ≤ 30% | ≤ 30% | – | ≤ 30% | ≤ 30% | ≤ 30%
COC(=O)CC1(NC(=O)c2sc(Br)c(Br)c2C)CC1 [I.012] | – | above 2 | ≤ 30% | ≤ 30% | ≤ 30% | ≤ 30% | ≤ 30% | ≤ 30% | ≤ 30%
CCOC(=O)C1(CNC(=O)c2sc(Br)c(Br)c2C)CC1 [I.013] | – | above 2 | ≤ 30% | ≤ 30% | – | ≤ 30% | – | ≤ 30% | –
CCOC(=O)C(CC(F)(F)F)NC(=O)c1sc(Br)c(Br)c1C (stereo not drawn) [I.018] | above 2 | above 2 | ≤ 30% | ≤ 30% | ≤ 30% | ≤ 30% | ≤ 30% | ≤ 30% | ≤ 30%
Cc1c(C(=O)NCC2(C(=O)O)CC2)sc(Br)c1Br [I.019] | above 2 | above 2 | ≤ 30% | ≤ 30% | ≤ 30% | ≤ 30% | ≤ 30% | ≤ 30% | ≤ 30%
Cc1c(C(=O)NC2CCOC2=O)sc(Br)c1Br (stereo not drawn) [I.021] | above 2 | above 2 | ≤ 30% | ≤ 30% | – | ≤ 30% | – | ≤ 30% | ≤ 30%
Cc1c(C(=O)NC2CCCNC2=O)sc(Br)c1Br (stereo not drawn) [I.022] | – | above 2 | ≤ 30% | ≤ 30% | ≤ 30% | ≤ 30% | ≤ 30% | ≤ 30% | ≤ 30%
Cc1c(C(=O)NCC(=O)NC2(C(=O)O)CC2)sc(Br)c1Br [I.025] | above 2 | above 2 | ≤ 30% | ≤ 30% | ≤ 30% | ≤ 30% | ≤ 30% | ≤ 30% | ≤ 30%
Cc1c(C(=O)NCC#N)sc(Br)c1Br [I.026] | above 2 | above 2 | ≤ 30% | ≤ 30% | – | ≤ 30% | – | ≤ 30% | ≤ 30%
Cc1c(C(=O)NC2CCSC2=O)sc(Cl)c1Cl (stereo not drawn) [I.037] | – | above 2 | ≤ 30% | ≤ 30% | – | ≤ 30% | – | ≤ 30% | ≤ 30%
CCOC(=O)CCNC(=O)c1sc(Cl)c(Cl)c1C [I.038] | – | above 2 | ≤ 30% | ≤ 30% | ≤ 30% | ≤ 30% | – | ≤ 30% | ≤ 30%
CCSC(=O)C(CC(C)C)NC(=O)c1sc(Cl)c(Cl)c1C (stereo not drawn) [I.041] | – | above 2 | ≤ 30% | ≤ 30% | ≤ 30% | ≤ 30% | – | ≤ 30% | ≤ 30%
CCSC(=O)C(NC(=O)c1sc(Cl)c(Cl)c1C)C(C)C (stereo not drawn) [I.042] | – | above 2 | ≤ 30% | ≤ 30% | ≤ 30% | ≤ 30% | – | ≤ 30% | ≤ 30%
COC(=O)[C@H](Cc1ccccc1)NC(=O)[C@H](CC(=O)O)NC(=O)c1sc(Cl)c(Cl)c1C [I.048] | – | above 2 | ≤ 30% | ≤ 30% | ≤ 30% | ≤ 30% | – | ≤ 30% | ≤ 30%
COC(=O)[C@@H](CC(N)=O)NC(=O)c1sc(Br)c(Br)c1C [I.052] | – | above 2 | ≤ 30% | ≤ 30% | ≤ 30% | ≤ 30% | ≤ 30% | ≤ 30% | ≤ 30%
